Binding data for five molecules are collected here from article PMC6168688.

These are yes or no findings as the source states them, for the method shown. Some entries that bind do so weakly or less than the wild type. For some assays here: Sequences can lack the tags named with a protein.

Experiment [1] concerns the target T1, REBELOTE (RBL), full length, yeast two-hybrid matrix fusion (pPC86/pPC97) (A. thaliana) (UniProt Q0WVH0).
T1 sequence: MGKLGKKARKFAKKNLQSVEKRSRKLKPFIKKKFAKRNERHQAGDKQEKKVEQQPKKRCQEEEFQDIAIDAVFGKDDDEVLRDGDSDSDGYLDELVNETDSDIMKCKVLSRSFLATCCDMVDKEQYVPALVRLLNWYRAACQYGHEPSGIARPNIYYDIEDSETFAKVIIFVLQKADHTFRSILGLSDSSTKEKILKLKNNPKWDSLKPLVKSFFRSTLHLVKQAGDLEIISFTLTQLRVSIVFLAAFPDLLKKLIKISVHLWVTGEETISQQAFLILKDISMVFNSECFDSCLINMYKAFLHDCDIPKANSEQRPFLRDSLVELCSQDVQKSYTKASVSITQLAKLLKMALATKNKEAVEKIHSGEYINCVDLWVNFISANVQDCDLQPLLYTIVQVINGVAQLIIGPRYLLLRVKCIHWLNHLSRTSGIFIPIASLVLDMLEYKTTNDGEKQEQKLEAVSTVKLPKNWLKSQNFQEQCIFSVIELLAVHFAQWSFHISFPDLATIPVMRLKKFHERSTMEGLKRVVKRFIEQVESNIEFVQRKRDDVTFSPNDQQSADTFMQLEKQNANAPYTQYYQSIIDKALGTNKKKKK
The experiment in a line: two-hybrid; A. thaliana NOC proteins tested two by two, in both directions, pPC86- and pPC97-based vectors; growth on SD-AHTL high selective media (10-3 dilution).

Experiment [2] has as its target T2, AtNOC2, full length, yeast two-hybrid matrix fusion (pPC86/pPC97) (A. thaliana) (UniProt Q9ZPV5).
T2 sequence: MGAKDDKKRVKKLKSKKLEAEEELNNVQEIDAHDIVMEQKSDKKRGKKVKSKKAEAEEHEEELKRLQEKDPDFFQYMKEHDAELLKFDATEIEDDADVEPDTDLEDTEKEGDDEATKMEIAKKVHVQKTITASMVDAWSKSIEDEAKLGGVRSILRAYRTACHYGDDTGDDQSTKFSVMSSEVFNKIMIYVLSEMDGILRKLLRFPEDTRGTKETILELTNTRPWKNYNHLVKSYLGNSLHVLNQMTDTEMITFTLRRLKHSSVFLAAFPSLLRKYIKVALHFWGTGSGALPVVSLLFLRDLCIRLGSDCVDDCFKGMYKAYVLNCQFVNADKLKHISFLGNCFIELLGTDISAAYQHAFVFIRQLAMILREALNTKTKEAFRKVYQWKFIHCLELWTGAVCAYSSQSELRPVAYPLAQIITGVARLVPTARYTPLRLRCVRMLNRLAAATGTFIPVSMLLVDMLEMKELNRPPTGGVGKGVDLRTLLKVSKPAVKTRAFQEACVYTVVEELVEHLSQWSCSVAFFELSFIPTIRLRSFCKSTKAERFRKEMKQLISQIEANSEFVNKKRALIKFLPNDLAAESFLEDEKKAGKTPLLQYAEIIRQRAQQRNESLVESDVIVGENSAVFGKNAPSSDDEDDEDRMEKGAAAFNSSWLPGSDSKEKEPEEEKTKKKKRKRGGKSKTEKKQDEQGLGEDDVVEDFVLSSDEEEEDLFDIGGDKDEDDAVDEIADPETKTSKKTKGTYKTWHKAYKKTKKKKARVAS
The experiment in a line: two-hybrid; A. thaliana NOC proteins tested two by two, in both directions, pPC86- and pPC97-based vectors; growth on SD-HTL selective media (10-3 dilution).

Experiment [3] has as its target T1, REBELOTE (RBL), full length, yeast two-hybrid matrix fusion (pPC86/pPC97) (A. thaliana). The description is as above.
Experiment [4] concerns the target T3, REBELOTE (RBL), full length, bait in pAS2.1 (A. thaliana) (UniProt Q0WVH0).
T3 sequence: T1 sequence
Briefly: two-hybrid; direct test by mating: AH109 with pADGAL4-2.1 full-length cDNAs of interactors, Y187 with pAS2.1-RBL; SD-AHTL selective media.

Experiment [5] has as its target HsCEBP/Z, GAL4 fusion protein (pGBKT7-GW / pACT2-GW) (human) (UniProt Q03701). Briefly: two-hybrid; mammalian NOC proteins, GAL4 fusions in pGBKT7-GW and pACT2-GW, interaction matrix on SD-HTL selective medium (10^-3 dilution).

B1: AtNOC3, full length, yeast two-hybrid matrix fusion (pPC86/pPC97) (protein, UniProt F4IDJ0 1-830)
chain: MGKNRRKQKVIPPPLLPPDVAEEDIEFSDEDLKYVKENTDYAQFVSQIDTAAINKQCGGRVMTVEDKYEEERSKRKTLQEEKGNGEILVDPVDVLPVKTLDGKLHYRTESKKSKLAEAETDEAEKDVLEDEHVLNKSQRREKAKKSKREAKKHEKDLPDEILQEEEETPQAAVLAEVKEELSAEESFENKKNKIAELGMLLLSDPEANIKTLKDMLDICKDQNTKIVKLALLSLLAVFKDIIPGYRIRLPTEKELEMKISKEVKKTRFYESTLLKAYKSYLQKLIIFEKQSVYNQIANRCLCTLLEAVPHFNYRDNLLIAVVRNISSPDEVVRRLCCSTIRYLFSNEGKHGGELTVQAVRLIADHVKAHNCQLHPNAIEVFMSIRFDEDIGKPNKEDEHNKKYKKNNKRKTQEEQNQVQENERKKSKKDMMSKIRDEVSADHRGVTYEPDAKERRKMQTETLSAVFETYFRILRNTMYTIGERTEEIPTSNPGAFGSHPLLAPCLDGLAKFTQQLDLDYMGDLMNYLKKLASSSSSVSNNTKQKNSKLLTVSERLRCCLVAFKVMRSNLNALNVDLQDFFVQLYNLILEYRPGRDSGVILAESLKIMLCDDRHQDMQKAAAFVKRLATFALCFGCAESMSALVTLKTLLQKNVKCRNLLENDAGGGSVSGSIAKYQPYATDPNLSGALATVLWELSLLSKHYHPAISTMATTVSNMNTSQSQTFLSAVTPQQAFADFSLVKESFEPKNESRKLNNKRKRESLPEEAKNVPEIDMVKLSKKLKENFTILRDIKEDERVRMELLQSEEKKPLKKQNNVVKKKLKNPKSKKQI
For B1, the binding entry in experiment [1], in experiment [2] and in experiment [3] was “binds” in each case.

B2: VFP3/ENAP1 (VirF-interacting Protein 3/EIN2 nuclear associated protein 1), full-length cDNA in pADGAL4-2.1 (protein, UniProt Q8VZI9 1-249)
chain: METTPETQSKTHRLPAGREDWWSEDATATLIEAWGDRYVNLNRGNLRQNDWKEVADAVNSSHGNGRPKTDVQCKNRIDTLKKKYKTEKAKPLSNWCFFDRLDFLIGPVMKKSSGAVVKSALMNPNLNPTGSKSTGSSLDDDDDDDDDDEEDDDDAGDWGFVVRKHRKVEDVDSSEGSAFRELARSILKLGEAFERIEGKKQQMMIELEKQRMEVAKELELQRMNMLMEMQLELEKSKLGKRRAASGKKL
Turning to B2, the binding entry in experiment [4] was “binds”.

B3: HsCEBP/Z, GAL4 fusion protein (pGBKT7-GW / pACT2-GW) (protein, UniProt Q03701 1-1054)
chain: MAAVKEPLEFHAKRPWRPEEAVEDPDEEDEDNTSEAENGFSLEEVLRLGGTKQDYLMLATLDENEEVIDGGKKGAIDDLQQGELEAFIQNLNLAKYTKASLVEEDEPAEKENSSKKEVKIPKINNKNTAESQRTSVNKVKNKNRPEPHSDENGSTTPKVKKDKQNIFEFFERQTLLLRPGGKWYDLEYSNEYSLKPQPQDVVSKYKTLAQKLYQHEINLFKSKTNSQKGASSTWMKAIVSSGTLGDRMAAMILLIQDDAVHTLQFVETLVNLVKKKGSKQQCLMALDTFKELLITDLLPDNRKLRIFSQRPFDKLEQLSSGNKDSRDRRLILWYFEHQLKHLVAEFVQVLETLSHDTLVTTKTRALTVAHELLCNKPEEEKALLVQVVNKLGDPQNRIATKASHLLETLLCKHPNMKGVVSGEVERLLFRSNISSKAQYYAICFLNQMALSHEESELANKLITVYFCFFRTCVKKKDVESKMLSALLTGVNRAYPYSQTGDDKVREQIDTLFKVLHIVNFNTSVQALMLLFQVMNSQQTISDRYYTALYRKMLDPGLMTCSKQAMFLNLVYKSLKADIVLRRVKAFVKRLLQVTCQQMPPFICGALYLVSEILKAKPGLRSQLDDHPESDDEENFIDANDDEDMEKFTDADKETEIVKKLETEETVPETDVETKKPEVASWVHFDNLKGGKQLNKYDPFSRNPLFCGAENTSLWELKKLSVHFHPSVALFAKTILQGNYIQYSGDPLQDFTLMRFLDRFVYRNPKPHKGKENTDSVVMQPKRKHFIKDIRHLPVNSKEFLAKEESQIPVDEVFFHRYYKKVAVKEKQKRDADEESIEDVDDEEFEELIDTFEDDNCFSSGKDDMDFAGNVKKRTKGAKDNTLDEDSEGSDDELGNLDDDEVSLGSMDDEEFAEVDEDGGTFMDVLDDESESVPELEVHSKVSTKKSKRKGTDDFDFAGSFQGPRKKKRNLNDSSLFVSAEEFGHLLDENMGSKFDNIGMNAMANKDNASLKQLRWEAERDDWLHNRDAKSIIKKKKHFKKKRIKTTQKTKKQRK
For the molecule B3, the binding result in experiment [5] is “binds”.

B4: OBERON1 (OBE1), full-length cDNA in pADGAL4-2.1 (protein, UniProt Q9S736 1-566)
chain: MGTSSGSNLPHQMLPPRQQLQTSLSLVSSDPHLSRSNSGIVRESPAESASSQETWPTSKSIMGRKTDSGKTGPDSHDQHVIRHVSIADKVSLRDIARERLDIVAERMHRLPEEYLEELKNGLKAILEGNGAQPIDEFMFLQKFVQTRSDLTSKTLVRAHRVQLEVLVVINTGIQAFLHPNINLSQSSLIEIFVYKRCRNIACQNELPADGCPCEICANRKGFCNLCMCVICNKFDFAVNTCRWIGCDVCSHWTHTDCAIRDGEISMGVSPKSVSGMGEMLFKCRACNHTSELLGWVKDVFQHCAPNWDRESLMKELDFVSRIFRGSEDTRGRKLFWKCEELMEKIKGGLAEATAAKLILMFFQEIELDSPKSLESGEGGGTIAPQDACNRIAEVVKETLRKMEIVGEEKTRMYKKARMGLEECEREVEEKAKQVAELQMERQKKKQQIEEVERIVRLKQAEAEMFQLKANEAKVEAERLERIVKAKKEKTEEEYASNYLKLRLSEAEAEKEYLFEKIKEQESGGNGGEASQAVMYSKIREMLHGYNASSPRVDPRSNQRNPFRSNP
For the molecule B4, in experiment [4], the binding result is listed as “binds”.

B5: SLOW WALKER 2 (SWA2), full length, yeast two-hybrid matrix fusion (pPC86/pPC97) (protein, UniProt F4IDC2 1-1043)
chain: MSKIKPLSKSSQDLSLLTSDIASFASSIGLASALPSSGFNDTDFRKPAKSKTQKRKKPKKDQQHKDEDEEGEPKSNIGNEKGKDFGARKQNKDAPVKQTLQPKPKPGFLSIDDESTGYKKKRFDEFKSLPKLPLVKASLLSSEWYNDAAEFEEKVFGGRKVAVANKEDFKGVVEKKRELGERLMWQYAEDFATSKGKGGDMKMVISAQKSGTVADKITAFEIMVGENPIANMRSLDALLGMVTSKVGKRFAFKGLKALSEILIRLLPDRKLKSLLQRPLNIIPENKDGYSLLLFWYWEDCLKQRYERFVTALDESSKDMLPELKDKALKTIYFMLTSKSEQERKLLVSLVNKLGDPQNKSASNADYHLTNLLADHPNMKAVVIDEVDSFLFRPHLGLRAKYHAVNFLSQIRLSHKGEDPKVAKRLIDVYFALFKVLTTEANRKQGADDKGAADKKKSNPKDTKQEVSTDSPIELDSRILSALLTGVNRAFPYVSTDEADDIIESQTPVLFKLVHSANFNVGVQSLMLLDKISSKNKIVSDRFYRALYSKLLLPSAMNSSKAEMFIGLLLRAMKNDINIKRVAAFSKRVLQVALQQPPQYACGCLFLLSEVLKSRPPLWKMVVQRESVEEEEDIEHFEDVIEGDDVDPNKKAENDENVVEVDHDGVEKSSRDGDSSSDDEEALAIRLSDEEDDNASDDSEELIRNETPQLEEVMEVSNDMEKRSQPPMRPSSLPGGYDPRHREPSYCNADRASWWELGVLSKHAHPSVATMAGTLLSGTNIVYNGNPLNDLSLTAFLDKFMEKKPKQNTWHGGSQIEPSKKLDMSNRVIGAEILSLAEGDVAPEDLVFHKFYVNKMTSTKQSKKKKKKKLPEEEAAEELYDVNDGDGGENYDSDVEFEAGDESDNEEIENMLDDVDDNAVEEEGGEYDYDDLDGVAGEDDEELVADVSDAEMDTDMDMDLIDDEDDNNVDDDGTGDGGDDDSDGDDGRSKKKKKEKRKRKSPFASLEEYKHLIDQDEKEDSKTKRKATSEPTKKKKKKKSKASE
B5: the binding result in experiment [2] and in experiment [3] was “binds” throughout.
